doi:10.1101/609503

B1: FtsX (endogenous, membrane extract) (protein, UniProt P0AC30 1-352)
chain: MNKRDAINHIRQFGGRLDRFRKSVGGSGDGGRNAPKRAKSSPKPVNRKTNVFNEQVRYAFHGALQDLKSKPFATFLTVMVIAISLTLPSVCYMVYKNVNQAATQYYPSPQITVYLQKTLDDDAAAGVVAQLQAEQGVEKVNYLSREDALGEFRNWSGFGGALDMLEENPLPAVAVVIPKLDFQGTESLNTLRDRITQINGIDEVRMDDSWFARLAALTGLVGRVSAMIGVLMVAAVFLVIGNSVRLSIFARRDSINVQKLIGATDGFILRPFLYGGALLGFSGALLSLILSEILVLRLSSAVAEVAQVFGTKFDINGLSFDECLLLLLVCSMIGWVAAWLATVQHLRHFTPE
B2: MltA (endogenous, membrane extract) (enzyme, UniProt P0A935 21-365)
chain: CSSKPTDRGQQYKDGKFTQPFSLVNQPDAVGAPINAGDFAEQINHIRNSSPRLYGNQSNVYNAVQEWLRAGGDTRNMRQFGIDAWQMEGADNYGNVQFTGYYTPVIQARHTRQGEFQYPIYRMPPKRGRLPSRAEIYAGALSDKYILAYSNSLMDNFIMDVQGSGYIDFGDGSPLNFFSYAGKNGHAYRSIGKVLIDRGEVKKEDMSMQAIRHWGETHSEAEVRELLEQNPSFVFFKPQSFAPVKGASAVPLVGRASVASDRSIIPPGTTLLAEVPLLDNNGKFNGQYELRLMVALDVGGAIKGQHFDIYQGIGPEAGHRAGWYNHYGRVWVLKTAPGAGNVFSG

Key:
[1] = target: T1, NlpI (soluble version, residues 19-294) (E. coli) (UniProt P0AFB1); assay: affinity purification with mass spectrometry
T1 sequence (chain, NT647 RED-NHS dye on amines where used as the labelled partner (fl-NlpI)): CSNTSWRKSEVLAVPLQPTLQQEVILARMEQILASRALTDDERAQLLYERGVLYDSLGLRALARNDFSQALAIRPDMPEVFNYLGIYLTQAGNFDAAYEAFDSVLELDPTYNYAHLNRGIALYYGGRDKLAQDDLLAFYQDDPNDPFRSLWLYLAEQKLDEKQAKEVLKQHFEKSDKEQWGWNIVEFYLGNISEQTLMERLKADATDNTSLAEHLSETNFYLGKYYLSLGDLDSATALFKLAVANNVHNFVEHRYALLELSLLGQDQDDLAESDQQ

[2] = target: T1, NlpI (soluble version, residues 19-294) (E. coli); assay: affinity purification with mass spectrometry; remark: listed apart in the source

Row | Binder | binding [1] | binding [2]
1 | B1 | binds | binds
2 | B2 | binds | binds

Where two headings read alike, the source gives them in different places. Results are given in words; binding and its absence hold for the method and conditions named. In cells and extracts the contact can be indirect. A yes stands for co-enrichment or nearness to the bait. Other partners may have been found.
